These are yes or no findings as the source states them, for the method shown. For some of these results: Binding seen in cells or lysates may run through a third protein. Some entries that bind do so weakly or less than the wild type. For some of these results: Tags and fused reporters may be left off the sequences shown.

Amino acid sequences for entries named in this document (tags omitted).
UniProt Q00987: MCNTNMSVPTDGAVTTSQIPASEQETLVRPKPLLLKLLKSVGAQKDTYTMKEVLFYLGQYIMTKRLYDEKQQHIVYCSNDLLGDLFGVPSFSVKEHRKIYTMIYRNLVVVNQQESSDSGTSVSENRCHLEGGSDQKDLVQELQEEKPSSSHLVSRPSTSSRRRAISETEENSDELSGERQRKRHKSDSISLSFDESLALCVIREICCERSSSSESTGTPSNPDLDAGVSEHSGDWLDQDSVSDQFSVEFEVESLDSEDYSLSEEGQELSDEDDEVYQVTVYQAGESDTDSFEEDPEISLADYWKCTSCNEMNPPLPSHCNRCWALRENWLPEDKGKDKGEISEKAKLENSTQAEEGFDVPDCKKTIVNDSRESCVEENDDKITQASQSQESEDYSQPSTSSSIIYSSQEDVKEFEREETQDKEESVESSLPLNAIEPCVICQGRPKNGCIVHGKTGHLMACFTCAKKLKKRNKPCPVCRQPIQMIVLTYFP

The target in experiment [1] is T1, Flag-LZAP (LXXLL/leucine zipper-containing ARF-binding protein) (UniProt Q96JB5).
T1 sequence: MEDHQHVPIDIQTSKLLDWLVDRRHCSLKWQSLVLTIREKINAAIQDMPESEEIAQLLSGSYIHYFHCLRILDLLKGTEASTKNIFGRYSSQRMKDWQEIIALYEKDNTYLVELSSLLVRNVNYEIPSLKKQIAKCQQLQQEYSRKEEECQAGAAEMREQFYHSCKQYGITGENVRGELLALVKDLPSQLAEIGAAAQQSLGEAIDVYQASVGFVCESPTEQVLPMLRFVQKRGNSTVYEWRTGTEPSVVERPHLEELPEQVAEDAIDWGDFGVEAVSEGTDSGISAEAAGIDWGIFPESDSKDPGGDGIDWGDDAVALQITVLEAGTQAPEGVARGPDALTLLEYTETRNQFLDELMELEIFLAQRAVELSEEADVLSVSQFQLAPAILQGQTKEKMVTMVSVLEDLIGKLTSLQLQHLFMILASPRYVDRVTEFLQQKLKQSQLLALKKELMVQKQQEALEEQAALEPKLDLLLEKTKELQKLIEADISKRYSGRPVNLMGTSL
In words: co-IP; U2OS cells transfected with Flag-LZAP with or without GFP-p53; lysed in RIPA buffer; LZAP precipitated with anti-Flag affinity agarose; blot with GFP and Flag antibodies.

Experiment [2] addresses T2, Recombinant LZAP (UniProt Q96JB5).
T2 sequence: T1 sequence
In words: co-IP; as a2/a3 but in the presence of nutlin (HDM2 inhibitor); recombinant proteins; agarose beads conjugated with LZAP or p53 antibodies; blots for HDM2, LZAP, p53; both purified.

In experiment [3] the target is T2, Recombinant LZAP. Briefly: co-IP; about 100 ng of each recombinant protein in PBS, 0.05% Triton X100, 100 mM NaCl, 0.05% BSA, 1 h at 4°C; precipitated with LZAP custom antiserum on Protein A/G agarose; blots for HDM2, LZAP, p53, GST; both purified.

As to “GFP-p53 (wild type) (from UniProt P04637 1-393)”, in experiment [1], the binding result was “binds”.
With “Recombinant human GST-HDM2 (from UniProt Q00987 1-491)”, the binding entry in experiment [2] and in experiment [3] was “binds” each time.
“Recombinant human p53 (from UniProt P04637 1-393)”: the binding result in experiment [3] is on record as “binds”.

Values taken from PMC5520489.
